Our source for the binding values is article PMC12827327.

Chains of the proteins cited; added tags and fusions are not shown.
UniProt Q9UJC5: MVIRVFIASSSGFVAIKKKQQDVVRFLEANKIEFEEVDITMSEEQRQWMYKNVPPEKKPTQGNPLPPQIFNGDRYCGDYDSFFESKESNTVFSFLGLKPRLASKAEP
UniProt Q9H299: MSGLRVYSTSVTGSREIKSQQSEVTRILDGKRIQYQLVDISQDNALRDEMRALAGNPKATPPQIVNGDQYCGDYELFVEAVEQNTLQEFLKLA

Results are given in words; binding and its absence hold for the method and conditions named.

One assay has as its target human SH3BGRL-2 (human) (UniProt Q9UJC5). Kind of assay: AUC; sedimentation velocity of each SH3BGRL isoform alone; 50,000 rpm, 20 °C; 25 mM HEPES pH 7.4, 50 mM NaCl, 0.5 mM TCEP; continuous c(s) model (SEDFIT); both purified.
For another assay, the target named is human SH3BGRL-3 (human) (UniProt Q9H299). The assay is described as above.

For the substance “human SH3BGRL-2 (from UniProt Q9UJC5 1-107)”, in the assay with human SH3BGRL-2 (human), the binding entry is “no binding (tested: 1 µM, 3 µM and 17 µM)”.

As for “human SH3BGRL-3 (from UniProt Q9H299 1-93)”, the binding result with human SH3BGRL-3 (human) is listed as “no binding”.
